Laboratory results taken from patent US6727278B1, “Pharmaceutically active agents that impede amyloid formation in vivo” (DMS Pharmaceutical Inc., priority 1986, dated 2004).
For at least one compound, name, drawing or mass did not settle the structure.

System: DMS (dense microspheres)
Assay: Test 1: in vitro disruption of DMS on a glass slide, Congo Red red-green birefringence
Conditions: 20 mM in physiological saline; about 80,000 DMS, mechanically disrupted
Description: TEST 1 In vitro Disruption of DMS on a Glass Slide
Homogeneous DMS preparations are placed by droplet on a clean dry glass slide. The volume and number of DMS used is optional but is recommended to be at least several thousand to facilitate interpretation (see Example 1 below). Larger samples are more costly but are easier and more unequivocal to examine. The DMS are mechanically disrupted using a stainless steel spatula scraping and pressing the DMS against a glass slide in repetitive manual back and forth motions for one minute. The slide is allowed to air dry. A few drops of Congo Red stain are then added to the dried slide and gently passed over the dried disrupted DMS for 30 seconds and the stain is then drained off the slide onto tissue paper or filter paper. The slide is then examined in the light microscope, the latter fitted with crossed polarizing lenses to assess red-green congophilic birefringence.
The result is an unequivocal red-to-green (“apple green”) birefringence similar to the red-to-apple green birefringence found in the senile-plaque amyloid of Alzheimer patients, and in quantities proportional to the volume of DMS applied to the slide initially.
For test purposes, a corresponding DMS sample is contacted with a possible pharmacological agent, and the DMS disruption/staining procedure as described above is repeated. […]

CC(=O)OCC[N+](C)(C)C [acetylcholine, Acetylcholine]
anti-amyloid activity in vitro (red-to-green congophilic birefringence vs control slide): negative
